Here are results for one substance from article PMC6120224.

By UniProt entry, the sequences of proteins in these tests, tags left out. Residues count along the entry.
UniProt O75509, residues 42-655: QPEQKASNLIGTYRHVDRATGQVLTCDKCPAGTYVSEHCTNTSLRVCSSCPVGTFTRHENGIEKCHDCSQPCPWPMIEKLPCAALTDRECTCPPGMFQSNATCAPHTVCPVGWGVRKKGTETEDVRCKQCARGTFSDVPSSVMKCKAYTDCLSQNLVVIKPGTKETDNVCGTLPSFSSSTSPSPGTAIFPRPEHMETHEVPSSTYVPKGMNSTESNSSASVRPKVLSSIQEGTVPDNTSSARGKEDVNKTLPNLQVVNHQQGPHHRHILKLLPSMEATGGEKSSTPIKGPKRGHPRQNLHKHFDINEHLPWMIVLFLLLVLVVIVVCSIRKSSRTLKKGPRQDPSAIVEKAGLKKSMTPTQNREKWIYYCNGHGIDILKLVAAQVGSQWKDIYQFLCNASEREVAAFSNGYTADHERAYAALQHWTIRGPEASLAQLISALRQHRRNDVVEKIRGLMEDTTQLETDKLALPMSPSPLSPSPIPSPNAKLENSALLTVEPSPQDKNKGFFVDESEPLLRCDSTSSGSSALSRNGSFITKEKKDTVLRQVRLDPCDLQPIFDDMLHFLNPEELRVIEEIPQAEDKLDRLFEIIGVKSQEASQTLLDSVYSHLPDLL
UniProt P52732: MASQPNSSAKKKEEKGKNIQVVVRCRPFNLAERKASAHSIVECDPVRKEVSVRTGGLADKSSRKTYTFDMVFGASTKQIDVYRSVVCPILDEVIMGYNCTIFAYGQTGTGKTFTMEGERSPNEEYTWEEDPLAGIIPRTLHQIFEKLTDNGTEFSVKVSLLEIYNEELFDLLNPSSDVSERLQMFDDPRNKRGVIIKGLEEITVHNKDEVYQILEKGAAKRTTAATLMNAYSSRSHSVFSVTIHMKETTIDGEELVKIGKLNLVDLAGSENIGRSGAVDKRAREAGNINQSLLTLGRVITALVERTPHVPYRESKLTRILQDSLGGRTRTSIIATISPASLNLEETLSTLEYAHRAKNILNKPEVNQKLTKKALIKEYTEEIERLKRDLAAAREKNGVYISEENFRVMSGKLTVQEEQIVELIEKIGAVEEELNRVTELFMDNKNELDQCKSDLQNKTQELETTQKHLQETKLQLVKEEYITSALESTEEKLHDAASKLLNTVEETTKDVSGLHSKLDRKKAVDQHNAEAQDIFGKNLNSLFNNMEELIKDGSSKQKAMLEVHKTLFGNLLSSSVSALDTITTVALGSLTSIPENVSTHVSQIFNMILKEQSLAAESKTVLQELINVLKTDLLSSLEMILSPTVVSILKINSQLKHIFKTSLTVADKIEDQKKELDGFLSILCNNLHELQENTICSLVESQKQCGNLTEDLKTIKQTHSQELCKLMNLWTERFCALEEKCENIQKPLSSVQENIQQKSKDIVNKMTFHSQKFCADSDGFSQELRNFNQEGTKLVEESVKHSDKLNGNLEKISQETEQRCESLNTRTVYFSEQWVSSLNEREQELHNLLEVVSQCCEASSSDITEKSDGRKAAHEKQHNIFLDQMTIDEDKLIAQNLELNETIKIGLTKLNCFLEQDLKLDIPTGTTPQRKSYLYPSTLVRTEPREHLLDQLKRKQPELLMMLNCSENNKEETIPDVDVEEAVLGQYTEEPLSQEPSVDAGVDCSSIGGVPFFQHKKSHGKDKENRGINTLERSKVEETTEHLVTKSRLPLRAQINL

Results are given in words; binding and its absence hold for the method and conditions named. Binding seen in cells or lysates may run through a third protein. A yes stands for co-enrichment or nearness to the bait. Other partners may have been found.

The target in this test is Flag-DR6 recombinant protein (death receptor 6), expressed in HEK-293T cells (human) (UniProt O75509). The test is described as follows: affinity purification with mass spectrometry; lysate of HEK-293T cells expressing Flag-DR6 (control: Flag-GFP) purified on Flag agarose, SDS/PAGE, silver stain, MS.

With “kinesin family member 11 (KIF11), in HEK-293T cells (from UniProt P52732 1-1056)”, the binding entry was “binds”.
